# Reference: patent US8115014B2, “Ethynylindole compounds” (ONO Pharmaceuticals, Co., Ltd., priority 2008, dated 2012)
# Some entries share one result that the patent states for a list of compounds.
# Test system: LTD4-induced bronchoconstriction in guinea pigs
# Assay: Effects of compounds on LTD4-induced bronchoconstriction in guinea pigs (Konzett-Rossler method)
# Assay type: in vivo
# Settings: oral administration, 2 hours and 24 hours prior to LTD4 challenge
row,SMILES,inhibition of guinea pig bronchoconstriction (in words)
1,"Cc1c(CCCC(=O)O)c2cccc(C#Cc3ccc(OCCCCc4c(F)c(F)c(F)c(F)c4F)cc3)c2n1CCCC(=O)O [Example 9, 4,4′-[2-methyl-7-({4-[4-(pentafluorophenyl)butoxy]phenyl}ethynyl)-1H-indole-1,3-diyl]dibutanoic Acid]",complete inhibition (the bronchoconstriction inhibition ratio of greater than 95% was evaluated as complete inhibition of bronchoconstriction)
2,"Cc1c(F)cccc1CCCCOc1ccc(C#Cc2ccc(F)c3c(CCCC(=O)O)c(C)n(CCCC(=O)O)c23)cc1 [Example 14 (2), 4,4′-[4-fluoro-7-({4-[4-(3-fluoro-2-methylphenyl)butoxy]phenyl}ethynyl)-2-methyl-1H-indole-1,3-diyl]dibutanoic Acid]",complete inhibition (the bronchoconstriction inhibition ratio of greater than 95% was evaluated as complete inhibition of bronchoconstriction)
3,"Cc1c(CCCC(=O)O)c2c(F)ccc(C#Cc3ccc(OCCCCc4c(F)cc(F)c(F)c4F)cc3)c2n1CCCC(=O)O [Example 14 (3), 4,4′-[4-fluoro-2-methyl-7-({4-[4-(2,3,4,6-tetrafluorophenyl)butoxy]phenyl}ethynyl)-1H-indole-1,3-diyl]dibutanoic Acid]",complete inhibition (the bronchoconstriction inhibition ratio of greater than 95% was evaluated as complete inhibition of bronchoconstriction)
